Laboratory results: patent publication US7795284B2, “4,7-dioxobenzothiazole-2-carboxamide derivatives, their preparation and their therapeutic uses” (Ipsen Pharma S.A.S., priority 2004, dated 2010)
Some entries share one result that the patent states for a list of compounds.

target: T1, purified recombinant enzyme Cdc25-C (MBP-Cdc25C) (Homo sapiens, UniProt P30307); test: Measurement of the phosphatase activity of the purified recombinant enzyme Cdc25C (OMFP dephosphorylation, fluorescence); type: biochemical; settings: OMFP 500 μM, 4 hours at 30° C., three independent experiments
T1 construct: made in house
T1 sequence (P30307 1-473): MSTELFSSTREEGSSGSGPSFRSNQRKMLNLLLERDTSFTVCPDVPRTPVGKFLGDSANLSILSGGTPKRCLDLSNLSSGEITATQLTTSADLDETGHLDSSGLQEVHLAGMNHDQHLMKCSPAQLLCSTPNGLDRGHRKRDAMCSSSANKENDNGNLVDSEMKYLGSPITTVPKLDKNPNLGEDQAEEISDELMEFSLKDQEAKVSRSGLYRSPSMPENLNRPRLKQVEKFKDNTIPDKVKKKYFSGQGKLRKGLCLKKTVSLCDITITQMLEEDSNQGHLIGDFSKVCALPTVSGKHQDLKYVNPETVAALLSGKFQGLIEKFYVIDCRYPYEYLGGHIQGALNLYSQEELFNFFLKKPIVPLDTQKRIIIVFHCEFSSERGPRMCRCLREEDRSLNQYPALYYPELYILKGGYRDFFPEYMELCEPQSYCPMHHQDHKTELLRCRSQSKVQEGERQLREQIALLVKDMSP

IC50, ≤ 1100 nM:
O=C1C(NCCC2CCCCC2)=CC(=O)c2sc(C(=O)N3CCN(C(=O)C4CCCO4)CC3)nc21 (centres unmarked) [Example 32, 5-[(2-cyclohexylethyl)amino]-2-{[4-(tetrahydrofuran-2-ylcarbonyl)piperazin-1-yl]carbonyl}-1,3-benzothiazole-4,7-dione]
CN(C)CCNC1=CC(=O)c2sc(C(=O)Nc3ccc(F)cc3)nc2C1=O [Example 33, 5-{[2-(dimethylamino)ethyl]amino}-N-(4-fluorophenyl)-4,7-dioxo-4,7-dihydro-1,3-benzothiazole-2-carboxamide]
CN(C)CCNC1=CC(=O)c2nc(C(=O)N3CCCC3)sc2C1=O [Example 34, 6-{[2-(dimethylamino)ethyl]amino}-2-(pyrrolidin-1-ylcarbonyl)-1,3-benzothiazole-4,7-dione]
COc1ccc(NC(=O)c2nc3c(s2)C(=O)C=C(NCCN(C)C)C3=O)cc1F [Example 35, 5-{[2-(dimethylamino)ethyl]amino}-N-(3-fluoro-4-methoxyphenyl)-4,7-dioxo-4,7-dihydro-1,3-benzothiazole-2-carboxamide]
COc1ccc2c(c1)CCCN2C(=O)c1nc2c(s1)C(=O)C=C(NCCN(C)C)C2=O [Example 36, 5-{[2-(dimethylamino)ethyl]amino}-2-[(6-methoxy-3,4-dihydroquinolin-1(2H)-yl)carbonyl]-1,3-benzothiazole-4,7-dione]
COc1ccc(C(=O)N2CCN(C(=O)c3nc4c(s3)C(=O)C=C(NCCN(C)C)C4=O)CC2)cc1 [Example 37, 5-{[2-(dimethylamino)ethyl]amino}-2-{[4-(4-methoxybenzoyl)piperazin-1-yl]carbonyl}-1,3-benzothiazole-4,7-dione]
CCNC(=O)c1nc2c(s1)C(=O)C=C(N(C)CCN(C)C)C2=O [Example 38, 5-[[2-(dimethylamino)ethyl](methyl)amino]-N-ethyl-4,7-dioxo-4,7-dihydro-1,3-benzothiazole-2-carboxamide]
CCNC(=O)c1nc2c(s1)C(=O)C=C(NCCc1ccc(F)cc1)C2=O [Example 39, N-ethyl-5-{[2-(4-fluorophenyl)ethyl]amino}-4,7-dioxo-4,7-dihydro-1,3-benzothiazole-2-carboxamide]
